The other results are listed elsewhere or left out. These are raw signals, not scaled to a control.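 In the initial screen, polymyxin B was used at a concentration that permeabilizes Salmonella's outer membrane but not its inner membrane. Maximum growth was set by DMSO wells with or without polymyxin B. Since plates varied, data were ranked per plate, and compounds giving the lowest OD600 advanced as hits.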
Tested on: Salmonella enterica serovar Typhimurium SL1344
Test: bacterial growth OD600 after 18 h with compound and polymyxin B; higher = more bacterial growth (less inhibition)
Conditions: 50 µM, Mueller-Hinton broth

SMILES	bacterial growth OD600 (polymyxin B 0.75 µg/mL)	bacterial growth OD600 (polymyxin B 1 µg/mL)
COc1ccccc1C(=O)N[C@@H]1c2ccccc2C2(CCN(C(=O)c3cc(C)nn3C)CC2)[C@H]1OC	0.875	–
COCCCN1C(=O)CC(CC(=O)N2CCN(c3ccc(F)cc3)CC2)(c2ccccc2OC)C1=O (stereo not drawn)	0.974	–
O=C1CCC(CCC(=O)N2CCCC(C(=O)CCc3ccccc3)C2)(Cc2ccc(Cl)cc2)N1 (stereo not drawn)	0.006	–
COC(=O)c1cccc(C(=O)N2CC(=O)N(c3ccc(OC)cc3)C3(CCCC3)C2)c1	0.798	–
Cc1ccc(C(C)CCN2CCOc3ccc(CN4CCC(O)(c5cccnc5)CC4)cc3C2)o1 (stereo not drawn)	0.942	–
CCOC(=O)C1(Cc2cccc(OC)c2)CCCN(S(=O)(=O)c2ccccc2)C1 (stereo not drawn)	–	0.285
COc1cc(=O)n2c(c1C(=O)NC(C)c1ccco1)CCN(Cc1ccc(C)c(C)c1)CC2 (stereo not drawn)	0.852	–
CC(Cc1cccs1)NC(=O)c1cccc(OC2CCN(S(C)(=O)=O)CC2)c1 (stereo not drawn)	–	1.03

Source: the supplement of paper PMC12889115
